The experiment concerns the target T1, EFCAB7 (human (endogenous in Hep3B)) (UniProt A8K855).
T1 sequence: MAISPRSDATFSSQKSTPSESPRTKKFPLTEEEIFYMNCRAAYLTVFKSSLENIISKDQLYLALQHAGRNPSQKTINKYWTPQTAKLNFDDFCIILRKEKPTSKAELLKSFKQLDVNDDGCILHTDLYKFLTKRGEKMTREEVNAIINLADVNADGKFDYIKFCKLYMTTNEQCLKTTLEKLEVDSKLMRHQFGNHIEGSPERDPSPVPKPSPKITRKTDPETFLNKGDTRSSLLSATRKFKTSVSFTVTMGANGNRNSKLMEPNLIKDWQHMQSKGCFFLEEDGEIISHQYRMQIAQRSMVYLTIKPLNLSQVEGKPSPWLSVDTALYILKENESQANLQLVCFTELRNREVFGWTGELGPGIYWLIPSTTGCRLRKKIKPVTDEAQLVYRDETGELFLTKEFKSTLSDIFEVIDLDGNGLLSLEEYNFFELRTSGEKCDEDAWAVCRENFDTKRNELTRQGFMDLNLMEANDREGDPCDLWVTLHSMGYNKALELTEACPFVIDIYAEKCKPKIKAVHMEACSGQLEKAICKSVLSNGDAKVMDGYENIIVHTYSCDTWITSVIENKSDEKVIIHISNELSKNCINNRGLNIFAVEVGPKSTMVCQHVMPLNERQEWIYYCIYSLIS
Put plainly: co-IP; 2 mg total cell lysate of Hep3B cells in IP buffer (10 mM phosphate buffer, 120 mM NaCl, 2.7 mM KCl, 1% Nonidet P-40, 0.5% DOC, 0.1% SDS); anti-EFCAB7 antibody on protein A/G mix beads overnight; immunoblotting. (In general: A western blot detects proteins with antibodies after separation by electrophoresis.)

The chains behind the UniProt entries cited, without tags or fusion partners.
UniProt Q99497: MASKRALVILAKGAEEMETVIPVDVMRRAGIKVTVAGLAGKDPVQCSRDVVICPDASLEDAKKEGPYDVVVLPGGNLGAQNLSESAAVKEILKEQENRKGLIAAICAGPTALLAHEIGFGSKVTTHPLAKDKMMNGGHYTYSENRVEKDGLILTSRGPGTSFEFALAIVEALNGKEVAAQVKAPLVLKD

These are yes or no findings as the source states them, for the method shown. In cells and extracts the contact can be indirect. Some entries that bind do so weakly or less than the wild type.

Regarding PARK7 (from UniProt Q99497 1-189), the binding result is “binds”.
